A: 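Tryptophan-tRNA ligase, Mycobacterium tuberculosis (UniProt P9WFT3). Enzyme assay of tryptophanyl-tRNA synthetase; the read-out is not stated. Concentration: 10 µM. Higher most likely means stronger inhibition; the record gives no direction and few retests gave an IC50. About 65,000 compounds were tested under these conditions; 0.098% (about 64) showed 50% or more at least once.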
B: 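Polyketide synthase Pks13, Mycobacterium tuberculosis (UniProt I6X8D2). Enzyme assay of the thioesterase domain of polyketide synthase 13; the read-out is not stated. Compounds at 30 µM. The record gives no direction; the compounds picked for IC50 retests had high values, so higher reads as stronger inhibition. Size under these conditions: about 67,000 compounds, about 300 of them at 50% or above in at least one test.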
C: 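Enzyme assay of CoaBC with a phosphate dye (Biomol Green) read at 650 nm. Target: Coenzyme A biosynthesis protein CoaBC, Mycobacterium tuberculosis (UniProt P9WNZ1). Concentration: 30 µM. Higher reads as stronger inhibition, judged from the few compounds that gave an IC50. Most strong results did not repeat in a second test. Size under these conditions: about 67,000 compounds, about 40 of them at 50% or above in at least one test.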

Sequences of proteins named here, by UniProt entry; tags and fusion partners are left off.
UniProt P9WFT3, whole entry: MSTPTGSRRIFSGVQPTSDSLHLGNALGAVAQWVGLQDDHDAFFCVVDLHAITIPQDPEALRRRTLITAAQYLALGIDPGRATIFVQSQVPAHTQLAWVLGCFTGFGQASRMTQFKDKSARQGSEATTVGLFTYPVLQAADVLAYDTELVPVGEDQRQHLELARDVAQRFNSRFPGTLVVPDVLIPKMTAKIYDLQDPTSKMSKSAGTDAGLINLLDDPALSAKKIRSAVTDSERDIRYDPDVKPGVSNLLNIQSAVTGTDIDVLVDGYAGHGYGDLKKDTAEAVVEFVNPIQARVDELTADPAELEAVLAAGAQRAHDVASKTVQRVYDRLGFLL
UniProt I6X8D2, whole entry: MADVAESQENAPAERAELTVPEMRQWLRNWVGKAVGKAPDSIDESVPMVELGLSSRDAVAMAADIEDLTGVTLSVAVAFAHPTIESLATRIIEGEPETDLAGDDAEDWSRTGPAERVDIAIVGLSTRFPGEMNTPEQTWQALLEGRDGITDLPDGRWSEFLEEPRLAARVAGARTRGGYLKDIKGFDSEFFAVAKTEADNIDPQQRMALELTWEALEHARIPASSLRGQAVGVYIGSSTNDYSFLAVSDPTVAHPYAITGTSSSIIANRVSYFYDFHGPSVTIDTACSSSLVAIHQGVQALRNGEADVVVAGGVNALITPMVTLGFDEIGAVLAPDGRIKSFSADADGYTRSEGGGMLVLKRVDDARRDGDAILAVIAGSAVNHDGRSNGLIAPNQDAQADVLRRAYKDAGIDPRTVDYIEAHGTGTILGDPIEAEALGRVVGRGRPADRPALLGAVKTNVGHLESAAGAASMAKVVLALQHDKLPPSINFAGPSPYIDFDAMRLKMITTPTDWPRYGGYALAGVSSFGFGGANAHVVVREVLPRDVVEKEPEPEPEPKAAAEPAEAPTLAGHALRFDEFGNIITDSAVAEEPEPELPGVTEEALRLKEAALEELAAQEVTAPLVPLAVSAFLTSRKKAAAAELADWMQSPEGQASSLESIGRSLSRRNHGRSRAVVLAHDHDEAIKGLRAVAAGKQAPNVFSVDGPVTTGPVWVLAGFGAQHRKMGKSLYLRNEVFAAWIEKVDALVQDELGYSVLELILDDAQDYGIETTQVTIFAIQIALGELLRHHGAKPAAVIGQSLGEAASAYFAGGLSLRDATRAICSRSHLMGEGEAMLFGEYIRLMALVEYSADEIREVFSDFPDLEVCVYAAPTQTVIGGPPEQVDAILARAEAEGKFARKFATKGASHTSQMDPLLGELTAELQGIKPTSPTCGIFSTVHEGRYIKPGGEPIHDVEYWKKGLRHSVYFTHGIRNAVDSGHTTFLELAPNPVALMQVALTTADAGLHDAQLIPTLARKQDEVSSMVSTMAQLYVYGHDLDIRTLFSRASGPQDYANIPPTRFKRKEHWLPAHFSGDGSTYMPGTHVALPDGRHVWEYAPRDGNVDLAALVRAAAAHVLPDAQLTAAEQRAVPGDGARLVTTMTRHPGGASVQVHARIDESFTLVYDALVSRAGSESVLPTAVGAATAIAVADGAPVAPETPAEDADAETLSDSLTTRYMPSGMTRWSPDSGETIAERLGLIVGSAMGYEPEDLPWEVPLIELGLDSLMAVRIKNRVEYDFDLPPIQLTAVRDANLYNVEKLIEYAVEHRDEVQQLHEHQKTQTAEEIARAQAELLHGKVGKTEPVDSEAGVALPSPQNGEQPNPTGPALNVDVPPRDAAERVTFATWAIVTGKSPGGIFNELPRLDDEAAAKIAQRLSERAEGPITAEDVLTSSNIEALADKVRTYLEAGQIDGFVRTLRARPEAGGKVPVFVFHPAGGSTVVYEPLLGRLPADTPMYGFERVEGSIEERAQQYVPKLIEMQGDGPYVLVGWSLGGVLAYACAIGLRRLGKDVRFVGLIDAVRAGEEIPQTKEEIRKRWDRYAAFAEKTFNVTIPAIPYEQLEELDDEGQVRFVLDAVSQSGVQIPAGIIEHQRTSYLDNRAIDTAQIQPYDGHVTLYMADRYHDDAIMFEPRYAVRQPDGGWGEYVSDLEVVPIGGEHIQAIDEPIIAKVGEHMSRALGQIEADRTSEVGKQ
UniProt P9WNZ1, whole entry: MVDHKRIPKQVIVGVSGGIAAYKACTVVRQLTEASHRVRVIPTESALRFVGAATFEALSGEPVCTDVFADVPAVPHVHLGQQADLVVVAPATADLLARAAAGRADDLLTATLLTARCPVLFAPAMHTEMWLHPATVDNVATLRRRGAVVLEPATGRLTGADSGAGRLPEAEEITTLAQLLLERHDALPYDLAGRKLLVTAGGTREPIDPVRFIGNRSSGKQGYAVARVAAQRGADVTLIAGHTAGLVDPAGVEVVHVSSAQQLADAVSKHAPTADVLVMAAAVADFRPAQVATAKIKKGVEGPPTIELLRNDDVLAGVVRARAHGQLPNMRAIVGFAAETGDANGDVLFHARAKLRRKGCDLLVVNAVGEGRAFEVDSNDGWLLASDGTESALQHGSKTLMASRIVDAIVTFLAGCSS

Each number is a percent effect as filed.
How 0% and 100% were set is not recorded. Most values in the screen are low, and negative values occur.
This is an unselected part of the compounds tested.

{"smiles": "Cc1nc(C)n(CC2CCCN(Cc3ncc(C(C)(C)C)o3)C2)n1", "stereo": "stereo not shown", "A": 0.6816, "B": -21.44, "C": 7.613}
{"smiles": "Cc1ccc(CN2CCC(c3nnc(CN4CCCCC4)n3C)CC2)o1", "A": -0.5848, "B": -11.73, "C": 0}
{"smiles": "O=C(CN1CCOC1=O)N1CCc2nnc(Cc3ccccc3)n2CC1", "A": -2.781, "B": -7.146, "C": -1.341}
{"smiles": "CC1c2ncc(CN3CCN(C)CC3)n2CCN1Cc1cccnc1", "stereo": "stereo not shown", "A": -5.561, "B": -7.137, "C": -1.396}
{"smiles": "Cc1cc(C)cc(C2(C(=O)NCC(C)CN3CCCC3=O)CC2)c1", "stereo": "stereo not shown", "A": -4.262, "B": -4.172, "C": 2.444}
{"smiles": "Cc1n[nH]c(C)c1CCCNCc1cn(CCC(N)=O)c2ccccc12", "A": -5.061, "B": -20.13, "C": -7.592}
{"smiles": "COc1ccc(S(=O)(=O)N2CCC[C@@H]3CN(C(=O)C4CC4)C[C@@H]32)cc1", "A": 18.1, "C": 6.699}
{"smiles": "CN(C)[C@@H]1CN(C(=O)c2cc3cccc(F)c3[nH]2)C[C@H]1O", "A": -3.897, "B": -5.116, "C": 4.338}
{"smiles": "COc1ccc(C(C)NC(=O)c2nn(C)c(C)c2Br)cc1", "stereo": "stereo not shown", "A": 1.417, "B": -0.8691, "C": -0.1122}
{"smiles": "CC(C)c1ccc(OCCC(=O)N2CCCC(C(N)=O)C2)cc1", "stereo": "stereo not shown", "A": -2.95, "B": -10.71, "C": 10.27}
{"smiles": "Cc1ccc(C2CSCCN2C(=O)c2ccncc2)cc1", "stereo": "stereo not shown", "A": -2.287, "B": -18.41, "C": 0.2301}
{"smiles": "Cc1ccc(CN2CCN(c3cncc(N(C)C)n3)CC2=O)cc1C", "A": -0.6441, "B": -3.121, "C": 1.082}
{"smiles": "Cc1cc(C(=O)N2CC[C@@H]3CN(CCC(C)C)S(=O)(=O)[C@@H]3CC2)no1", "A": -3.052, "B": -15.47, "C": 0.9009}
{"smiles": "O=C(C1CCCCC1)N1CCO[C@@H]2CNC[C@@H]21", "A": -0.366, "B": -33.37, "C": -1.844}
{"smiles": "Cc1nccn1-c1ccc(N2CCC(NC(C)C(C)C)CC2)cc1", "stereo": "stereo not shown", "A": -3.8, "C": 1.285}
{"smiles": "Cc1ccc(-c2nnc(NC(=O)c3ccn(C)c(=O)c3)[nH]2)s1", "A": -4.357, "B": -8.336, "C": 5.693}
{"smiles": "CCc1ccc(C(=O)N2CCCN(Cc3nccn3CC)CC2)s1", "A": 12.48, "B": -27.87, "C": 5.115}
{"smiles": "CCOc1ccc(Cc2c(O)nc(SC)n(-c3ccccc3)c2=O)cc1", "A": -2.98, "B": -9.396, "C": 5.34}
{"smiles": "CCCc1nnc(N2CCC(C3CCN(C)CC3)CC2)o1", "A": 0.7988, "B": -18.79, "C": 0.9732}
{"smiles": "CCc1nsc(N2CCCN(C(=O)c3ccsc3)CC2)n1", "A": 7.751, "B": -7.576, "C": 7.143}
{"smiles": "O=C(CN1CCCC(c2ncc[nH]2)C1)NCC(F)(F)F", "stereo": "stereo not shown", "A": 2.72, "B": 5.345, "C": 6.943}
{"smiles": "Cc1cc(N2CCc3cnc(C)nc3C2)n2nc(C(F)(F)F)nc2n1", "A": 7.712, "B": 14.17, "C": 0.6402}
{"smiles": "CC(C)OCCS(=O)(=O)N1CCCC1c1cccc(N(C)C)c1", "stereo": "stereo not shown", "A": -1.342, "B": -21.11}
{"smiles": "COC(=O)CN1CCN(c2nc3c(s2)c(C)nn3C)C(C)C1=O", "stereo": "stereo not shown", "A": -5.853, "B": -10.93, "C": 2.218}

From ChEMBL document CHEMBL3988442, “University of Dundee, Small-Polar-MMV Screening Library” (2021).